Data published in paper PMC8347470.
No constants are given. Whether binding was seen depends on the method and setting. Binding seen in cells or lysates may run through a third protein. Some results given as binding are weak or reduced against the parent protein; the word gives no strength.

Biological target: Toll-like receptor-2 (human (endogenous in Caco-2)), O60603
Assay: co-IP; total cell extracts of filter-grown Caco-2 monolayers, control or treated with BB1 (1 x 10^8 CFU/mL); 50 ug lysate with 10 ug TLR-2 antibody 2 h at 4 °C, Dynabeads 1 h at room temperature, washed 3 times with lysis buffer; Western blot
Conditions: remark: other sources report otherwise

binding: binds
B1: TLR-6, Q9Y2C9 32-796 (receptor)
chain: NEFAVDKSKRGLIHVPKDLPLKTKVLDMSQNYIAELQVSDMSFLSELTVLRLSHNRIQLLDLSVFKFNQDLEYLDLSHNQLQKISCHPIVSFRHLDLSFNDFKALPICKEFGNLSQLNFLGLSAMKLQKLDLLPIAHLHLSYILLDLRNYYIKENETESLQILNAKTLHLVFHPTSLFAIQVNISVNTLGCLQLTNIKLNDDNCQVFIKFLSELTRGSTLLNFTLNHIETTWKCLVRVFQFLWPKPVEYLNIYNLTIIESIREEDFTYSKTTLKALTIEHITNQVFLFSQTALYTVFSEMNIMMLTISDTPFIHMLCPHAPSTFKFLNFTQNVFTDSIFEKCSTLVKLETLILQKNGLKDLFKVGLMTKDMPSLEILDVSWNSLESGRHKENCTWVESIVVLNLSSNMLTDSVFRCLPPRIKVLDLHSNKIKSVPKQVVKLEALQELNVAFNSLTDLPGCGSFSSLSVLIIDHNSVSHPSADFFQSCQKMRSIKAGDNPFQCTCELREFVKNIDQVSSEVLEGWPDSYKCDYPESYRGSPLKDFHMSELSCNITLLIVTIGATMLVLAVTVTSLCIYLDLPWYLRMVCQWTQTRRRARNIPLEELQRNLQFHAFISYSEHDSAWVKSELVPYLEKEDIQICLHERNFVPGKSIVENIINCIEKSYKSIFVLSPNFVQSEWCHYELYFAHHNLFHEGSNNLILILLEPIPQNSIPNKYHKLKALMTQRTYLQWPKEKSKRGLFWANIRAAFNMKLTLVTENNDVKS
